Values quoted from earlier work, collected in patent publication US9757400B2, “Peptidomimetic inhibitors of post-proline cleaving enzymes” (Trustees of Tufts College, priority 2001, dated 2017).
At least one compound was matched to its structure with a doubt left.

Details: neutral pH; Gutheil and Bachovchin 1993; cited from earlier work

CC(C)[C@H](N)C(=O)N1CCC[C@H]1B(O)O [Val-boroPro]
ratio of [cyclic]:[open] forms: 1130:1
